For one substance, step yield results are on record in patent US5633346 (dated 1997).

This data set can be described thus: general procedure: solution-phase peptide synthesis; PyBroP/DIEA; WSCD.HCl/HOObt. To be noted: late stage modification step, HCl salt (deprotected intermediates).

Strings that start with PEPTIDE1 are HELM notation: dots part the residues, brackets hold end groups and non-standard residues.

As for “PEPTIDE1{[GluOnBu].[MeVal].L.[bHOMeVal].[D-Hmp].[MeVal].F.[MePhe].P}$PEPTIDE1,PEPTIDE1,1:R1-9:R2$$$V2.0”, the step yield is reported as 95.2%.
